# Library screen at single concentrations

A: 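Whole-parasite assay of Trypanosoma brucei over 72 hours; the read-out is not stated. Concentration: 30 µM. The record gives no direction; compounds that gave an IC50 in retests scored well above the rest, so higher reads as stronger inhibition. Values scatter widely below zero; nearly all retest evidence comes from the higher of the two concentrations used. Size under these conditions: about 64,000 compounds, about 940 of them at 50% or above in at least one test.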
B: 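Cell assay of Leishmania donovani living inside macrophages; the read-out is not stated. Tested at 30 µM. Higher reads as stronger inhibition (inferred: compounds with an IC50 in retests scored well above the rest). Of about 69,000 compounds tested this way, about 1,000 (1.5%) reached 50% or more in at least one test.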

Each number is a percent effect as filed. How 0% and 100% were set is not recorded. Most values in the screen are low, and negative values occur. Compounds were drawn at random from those tested, without regard to their results. Two or more numbers in one place are separate tests of the same structure; such repeats can differ widely. A dash means the value is not listed here; it may have been measured.

structure	A	B
Fc1cnccc1CN1CCC2(CCNCC2)C1	-129.7	25.89
COc1ccc(OC)c(-c2cc(C(=O)NCC3(CO)CC3)n(C)n2)c1	3.837	21.88
Cc1cc(CCC(=O)N(C)C)nc(C2CCCCN2)n1.Cl.Cl (configuration not stated)	8.149	19.09 & 18.1
O=C(c1cc(-n2cnnn2)ccc1Cl)N1CCOCC1	-40.29	-31.18
CCC(C)N(CCOC)Cc1nc2c(cnn2C)c(=O)[nH]1 (configuration not stated)	-11.8	37.72
CC(C)CN1CCC2(C1)CN(S(=O)(=O)c1cn(C)cn1)C2.O=C(O)C(F)(F)F.O=C(O)C(F)(F)F	-13.21	23.66
COCC(=O)N1CCCC(c2nc(N)ncc2-c2cccc(F)c2)C1 (configuration not stated)	-11.47	-13.07
CCNc1cc2c(nn1)CCN(C(=O)c1ccc(NC3CC3)nc1)C2	-8.71	18.68
Cc1noc(Cl)c1CC(=O)N1CCCC1Cn1cccn1 (configuration not stated)	-10.97	29.17
CC(C)(C)n1ncc2c1CCCC2NCc1cccc2c1OCCO2 (configuration not stated)	51.24	39.91
CC(C(=O)N(C)Cc1ccco1)n1cncn1 (configuration not stated)	-35.71	-38.78
O=C(NCCNc1ccc(C(F)(F)F)cn1)c1cc(Cl)ccc1F	-	20.85
O=C(O)C(F)(F)F.O=C(O)C(F)(F)F.[H][C@@]12C[C@H](C(=O)Nc3cccnc3)CN(CC3CC3)[C@]1([H])CCO2	21.57	5.172
COc1ccc(CN2CCC(c3nccnc3-n3ccnc3)CC2)cc1	9.362	1.977
COc1c(F)cc(CN2CCC3(CC2)CN(C)C(=O)O3)cc1Cl	-49.46	20.6
Cc1nc(C2CCCN2C(=O)COc2ccccc2)ncc1C(N)=O (configuration not stated)	-34.15	-9.112
Cn1cnc2c1CCN(Cc1noc(-c3ccccc3)n1)C2	30.44	17.02
O=C1C(NCc2nnc3n2CCCC3)CCN1CC(F)(F)F (configuration not stated)	-9.453	-13.74
COc1cc(Cl)c(C)cc1-n1nnc(C(=O)O)c1C	-33.25	28.92
CC(C)(C)c1nnc2n1C(C(=O)N1CCN(c3ncccn3)CC1)CC2 (configuration not stated)	-	13.52
CC(=O)N1CCN(CC(=O)NCCCN(C)c2ccccc2)CC1	-17.42	16.08
CCC(=O)N1CCN(c2cc(N(C)C)cnn2)CC1	0.2703	4.114 & -7.717
Cc1[nH]c(=O)sc1S(=O)(=O)N1CCCC1C(=O)NCc1ccsc1 (configuration not stated)	1.646	5.798
COc1cccc(-c2n[nH]cc2CNC2CCC(O)CC2)c1.Cl (configuration not stated)	-31.95	12.38
CS(=O)(=O)c1cc(Cl)cnc1C1CCN(C(=O)C2CC2)CC1	-10.72	18.99
CSC(C)C(=O)NCc1ccnc(N2CCN(C)CC2)c1 (configuration not stated)	8.993	35.35
O=C(O)C(F)(F)F.O=C(O)C(F)(F)F.c1ccc(CO[C@H]2CO[C@@]3(CCN(Cc4ccoc4)C3)C2)nc1	29.08	49.7
CCC(=O)N1CCCN(C(=O)c2cc(C)cc(Br)c2O)CC1	8.901	16
[H][C@]12CCCCN1CCC[C@H]2COc1ccc2c(c1)OCC2=O	-25.96	4.968
O=C(O)C(F)(F)F.c1cnc(N2CCOCC3(CN(Cc4nccs4)CCO3)C2)nc1 (configuration not stated)	-13.58	2.501 & 15.79
Cc1nccn1[C@@H]1CC[C@@H](N(C)S(=O)(=O)c2ccccc2F)[C@H]1O	-2.534	41.12
Cc1[nH]c(-c2ccccc2)nc1C(=O)N1CCc2[nH]cnc2C1C(=O)O (configuration not stated)	-8.2	25.32
O=C(c1ccnn1COc1ccc(Cl)cc1)N1CCOCC1	-7.307	-28.09
CCc1nc(C)sc1CN1CC[C@](C)(O)[C@H](C)C1	-25.39	10.42
O=C(C1CC(=O)N(c2ccccc2Br)C1)N1CCCCCC1 (configuration not stated)	7.82	-7.308
O=C(Nc1ccc(CCN2CCOCC2)cc1)C1CCCC1	-	10.67
CCOc1cccc(C(=O)N2CCCn3nc(CCC(=O)O)cc3C2)c1	-16.01	-20.88
[H][C@]12CN(C(=O)CC3CC3)C[C@@]1([H])C(=O)N(c1ccccc1)C2	-8.054	13.81
O=C(O)C(F)(F)F.O=C(c1ccoc1)N1CCO[C@]2(CCC[C@@H]2COCc2cccnc2)C1	-10.09	-3.306
Cc1cc(SC(C)(C)C)ccc1NC(=O)CNC(N)=O	-24.81	2.284
CN(CC(=O)NCc1ccco1)Cc1nc2c(s1)CCCC2	-9.657	31.38
Cc1cc2c(=O)n3c(nc2s1)CCN(Cc1ccncc1)CC3	-2.833	22.96
COc1ccc2nc(C)c(C(=O)NCCN3CCS(=O)(=O)CC3)cc2c1	-9.225	-20.06
CN(C)c1nc2c(c(NCc3nnc4n3CCCCC4)n1)CCNC2	-25.58	-0.9874
Cc1ccc(C(=O)Nc2cc(C(N)=O)ccc2CN(C)C)cc1Cl	-70.25	6.13
O=C(O)C(F)(F)F.[H][C@@]12C[C@@H](c3nc(C4CC4)cs3)O[C@]1([H])CN(c1ncc(F)cn1)C2	-22.36	22.35
CCOc1ccc(C(=O)NCc2ccnc(N3CCN(C)CC3)c2)cn1	11.62	9.022
Cn1cnnc1S(=O)(=O)C1CCN(C(=O)c2ccco2)CC1	-69.2	30.96
CCc1n[nH]c(C2CN(C(=O)c3cc4c(s3)CCCC4)CCO2)n1 (configuration not stated)	-38.79	9.811
[H][C@]12CCN(S(=O)(=O)c3ccc(OC)cc3)[C@@]1([H])CC[C@@H](COC)O2	10.1	12.79
O=c1c(Cc2ccccc2)c(O)ccn1Cc1ccco1	-	12.85
CN(Cc1ccccc1Cl)C(=O)c1cc(CN2CCC(O)CC2)on1	4.015	25.1
CCS(=O)(=O)N1Cc2nnn(C)c2C(COCCN(C)C)C1.O=C(O)C(F)(F)F (configuration not stated)	-25.83	20.17 & 30.66
Cc1cc(C(=O)N2CCCCC2c2nc3cc(F)ccc3[nH]2)nn1C (configuration not stated)	3.458	24.52
O=C(O)C(F)(F)F.[H][C@]12CCN(C(=O)NC(C)C)C[C@@]1([H])OCCN(Cc1csc(C)n1)C2	0.871	2.582
COc1ccc(CN2CCC(O)CC2)c(OC)c1	0.1564	34.45
Cc1nc(C)c(C(=O)N2CCc3nnc(C4CCCN4C)n3CC2)s1 (configuration not stated)	11.51	35.39
CSCCC(=O)N1CCN(CC(C)O)CC1 (configuration not stated)	-56.07	10.44
CC(C)OC(=O)CCNC(=O)Nc1cccc2ncccc12	7.401	-12.92
O=C(CCC1CC1)N1C[C@@H](CN2CCCC2)[C@@H](CO)C1	-14.96	9.093
COC(=O)CC1C(=O)NCCN1c1nc2c(s1)c(C)nn2C (configuration not stated)	-54	6.396
CCC(C)N1Cc2c(C(=O)N3CCCC3)nn(C)c2C1.O=C(O)C(F)(F)F (configuration not stated)	-42.94	15.69
COc1ccc(C)cc1NC(=O)c1c(C)cn(C)c1CC(=O)O	-10.7	-16.01
Cc1ccc2nc(CN(Cc3ccc(C#N)cc3)C(C)C)cc(=O)n2c1	-188.6	-63.19
Cc1cc(NCCOCCS(C)(=O)=O)nc2ccccc12	-21.47	15.61

Some entries from above, unchanged:

Result for CCC(C)N1Cc2c(C(=O)N3CCCC3)nn(C)c2C1.O=C(O)C(F)(F)F (configuration not stated) was A: -42.94%; B: 15.69%.
Result for Cc1ccc2nc(CN(Cc3ccc(C#N)cc3)C(C)C)cc(=O)n2c1 was A: -188.6%; B: -63.19%.
Result for COc1ccc(CN2CCC(c3nccnc3-n3ccnc3)CC2)cc1 was A: 9.362%; B: 1.977%.
Result for COc1ccc(OC)c(-c2cc(C(=O)NCC3(CO)CC3)n(C)n2)c1 was A: 3.837%; B: 21.88%.
Result for Cc1ccc(C(=O)Nc2cc(C(N)=O)ccc2CN(C)C)cc1Cl was A: -70.25%; B: 6.13%.
Result for Cc1cc(CCC(=O)N(C)C)nc(C2CCCCN2)n1.Cl.Cl (configuration not stated) was A: 8.149%; B: 19.09% & 18.1%.

Source: ChEMBL document CHEMBL3988442, “University of Dundee, Small-Polar-MMV Screening Library” (2021).